From PMC7696408
No constants are given. Whether binding was seen depends on the method and setting. In cells and extracts the contact can be indirect. Some entries that bind do so weakly or less than the wild type. Tags and fused reporters may be left off the sequences shown.

Tests used:
FlagBirA*-HRAS (human) = FlagBirA*-HRAS (human) (UniProt P01112); experiment: proximity ligation; Duolink PLA in methanol-fixed FlagBirA*-RAS T-REx 293 cells transfected with 3xHA-tagged candidate, tetracycline-induced; mouse anti-Flag and rabbit anti-HA; dots per cell, 100 cells; radius ~30 nm
FlagBirA*-KRAS4B (human) = FlagBirA*-KRAS4B (human) (UniProt P01116); experiment: as above

binding (FlagBirA*-HRAS (human)) | binding (FlagBirA*-KRAS4B (human)) | Binder
binds |  | HA-RAP2A (protein, UniProt P10114 1-183) MREYKVVVLGSGGVGKSALTVQFVTGTFIEKYDPTIEDFYRKEIEVDSSPSVLEILDTAGTEQFASMRDLYIKNGQGFILVYSLVNQQSFQDIKPMRDQIIRVKRYEKVPVILVGNKVDLESEREVSSSEGRALAEEWGCPFMETSAKSKTMVDELFAEIVRQMNYAAQPDKDDPCCSACNIQ
binds |  | HA-S100A11 (protein, UniProt P31949 1-105) MAKISSPTETERCIESLIAVFQKYAGKDGYNYTLSKTEFLSFMNTELAAFTKNQKDPGVLDRMMKKLDTNSDGQLDFSEFLNLIGGLAMACHDSFLKAVPSQKRT
 | binds | HA-PGD (protein, UniProt P52209 1-483) MAQADIALIGLAVMGQNLILNMNDHGFVVCAFNRTVSKVDDFLANEAKGTKVVGAQSLKEMVSKLKKPRRIILLVKAGQAVDDFIEKLVPLLDTGDIIIDGGNSEYRDTTRRCRDLKAKGILFVGSGVSGGEEGARYGPSLMPGGNKEAWPHIKTIFQGIAAKVGTGEPCCDWVGDEGAGHFVKMVHNGIEYGDMQLICEAYHLMKDVLGMAQDEMAQAFEDWNKTELDSFLIEITANILKFQDTDGKHLLPKIRDSAGQKGTGKWTAISALEYGVPVTLIGEAVFARCLSSLKDERIQASKKLKGPQKFQFDGDKKSFLEDIRKALYASKIISYAQGFMLLRQAATEFGWTLNYGGIALMWRGGCIIRSVFLGKIKDAFDRNPELQNLLLDDFFKSAVENCQDSWRRAVSTGVQAGIPMPCFTTALSFYDGYRHEMLPASLIQAQRDYFGAHTYELLAKPGQFIHTNWTGHGGTVSSSSYNA
